Test results published in article PMC3749939.
Where two headings read alike, the source gives them in different places. These are yes or no findings as the source states them, for the method shown. In cells and extracts the contact can be indirect. Some entries that bind do so weakly or less than the wild type.

Chains of the proteins cited; added tags and fusions are not shown. Lines headed by an entry give the natural chain unless they say otherwise; changes in a name come on top.
UniProt P0C0S6: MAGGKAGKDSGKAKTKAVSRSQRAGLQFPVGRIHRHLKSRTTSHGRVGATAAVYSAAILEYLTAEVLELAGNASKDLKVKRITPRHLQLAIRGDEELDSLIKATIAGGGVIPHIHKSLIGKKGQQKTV
UniProt P60122: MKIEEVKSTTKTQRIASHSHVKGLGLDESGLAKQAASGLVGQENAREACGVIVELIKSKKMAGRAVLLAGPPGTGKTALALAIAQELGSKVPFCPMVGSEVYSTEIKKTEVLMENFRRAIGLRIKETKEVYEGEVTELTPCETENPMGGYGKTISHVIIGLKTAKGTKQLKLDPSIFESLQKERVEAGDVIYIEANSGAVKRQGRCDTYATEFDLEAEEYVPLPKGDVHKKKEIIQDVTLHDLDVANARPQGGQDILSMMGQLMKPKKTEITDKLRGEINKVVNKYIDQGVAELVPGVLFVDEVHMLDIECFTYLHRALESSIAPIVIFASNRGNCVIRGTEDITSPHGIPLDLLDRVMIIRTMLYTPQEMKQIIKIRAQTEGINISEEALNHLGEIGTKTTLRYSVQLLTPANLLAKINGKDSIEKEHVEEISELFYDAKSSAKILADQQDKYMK

How the values were obtained:
[1] = target: wild-type H2A.Z-YFP (mouse) (UniProt P0C0S6); experiment: co-IP; immunoprecipitation with GFP antibodies of the YFP-tagged histone from dox-induced transgenic ESCs (endogenous H2A.Z knockdown background), immunoblot of the partners; uninduced cells (No DOX) as negative controls; densitometry in ImageJ
[2] = target: wild-type H2A.Z-YFP (mouse) (UniProt P0C0S6); experiment: as above; remark: listed apart in the source

| binding [1] | binding [2] | Molecule |
| --- | --- | --- |
| binds |  | RUVBL1 (from UniProt P60122 1-456) |
|  | binds | NAP1L1 (protein, UniProt P28656 1-391) MADIDNKEQSELDQDLEDVEEVEEEETGEETKIKARQLTVQMMQNPQILAALQERLDGLVDTPTGYIESLPKVVKRRVNALKNLQVKCAQIEAKFYEEVHDLERKYAVLYQPLFDKRFEIINAIYEPTEEECEWKPDEEDEVSEELKEKAKIEDEKKDEEKEDPKGIPEFWLTVFKNVDLLSDMVQEHDEPILKHLKDIKVKFSDAGQPMSFVLEFHFEPNDYFTNEVLTKTYRMRSEPDDSDPFSFDGPEIMGCTGCQIDWKKGKNVTLKTIKKKQKHKGRGTVRTVTKTVSNDSFFNFFAPPEVPENGDLDDDAEAILAADFEIGHFLRERIIPRSVLYFTGEAIEDDDDDYDEEGEEADEEGEEEGDEENDPDYDPKKDQNPAECKQQ |
